Values from PubChem BioAssay AID743121 (NCATS, 2013)
In all, the deposit lists about 26,000 reagents; this is an unselected part. 167 of them (0.63%) were called active. 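Calls are per gene from RSA p-values that are not deposited; an individual active-marked siRNA can sensitise only weakly.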 Reagents against one gene are numbered here. Not all columns of the deposit are shown.

- Purpose: 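Knock-downs that sensitise breast cancer cells to camptothecin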 (primary screen)
- System: MDA-MB-231 cells, a human breast cancer line
- Reagents: single siRNA against human genes, 20 nM siRNA (0.8 pmol per well)
- Timing: 120 h (drug added 48 h after transfection, read 72 h later)
- Conditions: camptothecin 20 nM (about EC30) for 72 h; vehicle 0.1% DMSO in parallel plates
- Measured: 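CellTiter-Glo ATP signal, scaled to control siRNA as percent viability; sensitisation given as log2 of untreated divided by camptothecin-treated viability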
- Scale: log2 vehicle/camptothecin viability: higher = stronger sensitisation to camptothecin; viability with camptothecin: higher = more viable cells
- Units: viability with camptothecin in % of control
- Active means: 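Active genes have an RSA gene-level p-value below 0.001, computed from the ratios of their separate siRNAs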

TRPM3 #1 → log2 vehicle/camptothecin viability = -0.0645; viability with camptothecin = 65.4; Outcome = inactive
TRPM3 #2 → log2 vehicle/camptothecin viability = -0.358; viability with camptothecin = 87.2; Outcome = inactive
TRPM3 #3 → log2 vehicle/camptothecin viability = -0.186; viability with camptothecin = 101; Outcome = inactive
TRPM3 #4 → log2 vehicle/camptothecin viability = 0.321; viability with camptothecin = 75.8; Outcome = inactive
ITGB3BP #1 → log2 vehicle/camptothecin viability = 0.0745; viability with camptothecin = 113; Outcome = inactive
ITGB3BP #2 → log2 vehicle/camptothecin viability = -0.0111; viability with camptothecin = 92.8; Outcome = inactive
ITGB3BP #3 → log2 vehicle/camptothecin viability = -0.401; viability with camptothecin = 29.8; Outcome = inactive
DNAJC10 #1 → log2 vehicle/camptothecin viability = 0.369; viability with camptothecin = 70.6; Outcome = inactive
DNAJC10 #2 → log2 vehicle/camptothecin viability = -0.294; viability with camptothecin = 79.3; Outcome = inactive
DNAJC10 #3 → log2 vehicle/camptothecin viability = -0.277; viability with camptothecin = 80.8; Outcome = inactive
DNAJC10 #4 → log2 vehicle/camptothecin viability = -0.0824; viability with camptothecin = 54.9; Outcome = inactive
C8G #1 → log2 vehicle/camptothecin viability = -0.0422; viability with camptothecin = 68.1; Outcome = inactive
C8G #2 → log2 vehicle/camptothecin viability = -0.208; viability with camptothecin = 78; Outcome = inactive
C8G #3 → log2 vehicle/camptothecin viability = -0.103; viability with camptothecin = 106; Outcome = inactive
UBQLN1 #1 → log2 vehicle/camptothecin viability = -0.0574; viability with camptothecin = 107; Outcome = inactive
UBQLN1 #2 → log2 vehicle/camptothecin viability = -0.244; viability with camptothecin = 78; Outcome = inactive
UBQLN1 #3 → log2 vehicle/camptothecin viability = -0.145; viability with camptothecin = 54.3; Outcome = inactive
UBQLN1 #4 → log2 vehicle/camptothecin viability = -0.392; viability with camptothecin = 49.4; Outcome = inactive
OR1E1 #1 → log2 vehicle/camptothecin viability = -0.536; viability with camptothecin = 78.4; Outcome = inactive
OR1E1 #2 → log2 vehicle/camptothecin viability = -0.288; viability with camptothecin = 79; Outcome = inactive
OR1E1 #3 → log2 vehicle/camptothecin viability = -0.325; viability with camptothecin = 74.5; Outcome = inactive
OR1E1 #4 → log2 vehicle/camptothecin viability = -0.22; viability with camptothecin = 90.1; Outcome = inactive
OR1E1 #5 → log2 vehicle/camptothecin viability = -0.26; viability with camptothecin = 102; Outcome = inactive
OR1E1 #6 → log2 vehicle/camptothecin viability = -0.404; viability with camptothecin = 78.8; Outcome = inactive
OR1E1 #7 → log2 vehicle/camptothecin viability = -0.402; viability with camptothecin = 105; Outcome = inactive
OR1E1 #8 → log2 vehicle/camptothecin viability = -0.00409; viability with camptothecin = 104; Outcome = inactive
DNASE2 #1 → log2 vehicle/camptothecin viability = -0.165; viability with camptothecin = 78.4; Outcome = inactive
DNASE2 #2 → log2 vehicle/camptothecin viability = -0.191; viability with camptothecin = 118; Outcome = inactive
DNASE2 #3 → log2 vehicle/camptothecin viability = -0.483; viability with camptothecin = 67.5; Outcome = inactive
DNASE2 #4 → log2 vehicle/camptothecin viability = 0.244; viability with camptothecin = 47.2; Outcome = inactive
RERG #1 → log2 vehicle/camptothecin viability = 0.0369; viability with camptothecin = 87.9; Outcome = inactive
RERG #2 → log2 vehicle/camptothecin viability = 0.781; viability with camptothecin = 35.8; Outcome = inactive
RERG #3 → log2 vehicle/camptothecin viability = -0.18; viability with camptothecin = 89; Outcome = inactive
RERG #4 → log2 vehicle/camptothecin viability = -0.469; viability with camptothecin = 68.9; Outcome = inactive
GTPBP4 #1 → log2 vehicle/camptothecin viability = -0.443; viability with camptothecin = 71.7; Outcome = inactive
GTPBP4 #2 → log2 vehicle/camptothecin viability = -0.438; viability with camptothecin = 52.8; Outcome = inactive
GTPBP4 #3 → log2 vehicle/camptothecin viability = -0.409; viability with camptothecin = 67.9; Outcome = inactive
SPTB #1 → log2 vehicle/camptothecin viability = -0.362; viability with camptothecin = 78.6; Outcome = inactive
SPTB #2 → log2 vehicle/camptothecin viability = 0.0807; viability with camptothecin = 62.2; Outcome = inactive
SPTB #3 → log2 vehicle/camptothecin viability = -0.509; viability with camptothecin = 79.4; Outcome = inactive
SPTB #4 → log2 vehicle/camptothecin viability = -0.201; viability with camptothecin = 106; Outcome = inactive
CLEC2B #1 → log2 vehicle/camptothecin viability = -0.256; viability with camptothecin = 56.7; Outcome = inactive
CLEC2B #2 → log2 vehicle/camptothecin viability = -0.281; viability with camptothecin = 83.9; Outcome = inactive
CLEC2B #3 → log2 vehicle/camptothecin viability = -0.204; viability with camptothecin = 58.1; Outcome = inactive
WDR46 #1 → log2 vehicle/camptothecin viability = -0.466; viability with camptothecin = 89.5; Outcome = inactive
WDR46 #2 → log2 vehicle/camptothecin viability = -0.0904; viability with camptothecin = 80; Outcome = inactive
WDR46 #3 → log2 vehicle/camptothecin viability = -0.297; viability with camptothecin = 75.3; Outcome = inactive
WDR46 #4 → log2 vehicle/camptothecin viability = -0.377; viability with camptothecin = 65.6; Outcome = inactive

Laid out differently: 6 of the entries above.
{"gene": "GTPBP4", "reagent no.": 3, "log2 vehicle/camptothecin viability": -0.409, "viability with camptothecin": 67.9, "Outcome": "inactive"}
{"gene": "SPTB", "reagent no.": 1, "log2 vehicle/camptothecin viability": -0.362, "viability with camptothecin": 78.6, "Outcome": "inactive"}
{"gene": "SPTB", "reagent no.": 2, "log2 vehicle/camptothecin viability": 0.0807, "viability with camptothecin": 62.2, "Outcome": "inactive"}
{"gene": "SPTB", "reagent no.": 3, "log2 vehicle/camptothecin viability": -0.509, "viability with camptothecin": 79.4, "Outcome": "inactive"}
{"gene": "SPTB", "reagent no.": 4, "log2 vehicle/camptothecin viability": -0.201, "viability with camptothecin": 106, "Outcome": "inactive"}
{"gene": "CLEC2B", "reagent no.": 1, "log2 vehicle/camptothecin viability": -0.256, "viability with camptothecin": 56.7, "Outcome": "inactive"}
